No constants are given. Whether binding was seen depends on the method and setting. In cells and extracts the contact can be indirect. Binding calls can cover weak binding; strength is not graded here. Where a sequence is shown, tags or fusion partners need not be part of it.
Target: T1, GFP-CD63 full length (UniProt P41731)
T1 sequence: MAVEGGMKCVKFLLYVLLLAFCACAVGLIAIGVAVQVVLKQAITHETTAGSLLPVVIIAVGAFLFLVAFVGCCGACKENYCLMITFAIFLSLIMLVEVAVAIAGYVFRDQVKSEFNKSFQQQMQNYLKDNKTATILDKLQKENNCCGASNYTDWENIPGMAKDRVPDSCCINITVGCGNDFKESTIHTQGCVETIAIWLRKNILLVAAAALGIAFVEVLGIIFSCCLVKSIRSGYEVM
Assay: co-IP; HEK293T cells co-transfected with GFP-CD63 (full length or truncates) and Flag- or Myc-tagged NLRP3 or ASC constructs; lysed after 36 h, IP with 1 μg Flag, GFP or Myc antibody, immunoblot

- binding: binds
Substance: Flag–NBD (nucleotide-binding domain of NLRP3) (domain or fragment)
